# Measured values as given in PubChem BioAssay AID651900 (Broad Institute, 2012).
# The other results are listed elsewhere or left out. These are further read-outs of the screen, such as a control signal, another cell line or another target. No call is given for them.
# Assay: cytotoxicity in NIH3T3 fibroblasts, dose response, cytotoxicity control, cell-based, plate reader, cherry-pick, two tests (AID 651900)
# Conditions: test 2 concentration series, at 26 µM
row,Compound,activity [%]
1,O=C(CSc1nc2c(c(=O)n1-c1ccccc1)SCC2)N1CCOCC1,1.96
2,O=C(CSc1nc2c(c(=O)n1-c1ccc(Cl)cc1)SCC2)N1CCOCC1,-3.89
3,COc1ccc(C2c3c(-c4cc(Cl)c(C)cc4O)n[nH]c3C(=O)N2Cc2cccnc2)cc1OC (configuration not stated),-6.29
4,C=C(C)n1c(=O)n(Cc2ccccc2C)c2ccccc21,-17.7
5,O=C(Nc1ccccc1)N1CCN(Cc2ccc3c(c2)OCO3)CC1,-3.08
6,CCOc1ccc(-n2c(SCC(N)=O)nc3c(c2=O)SCC3)cc1,6.74
7,CCCCN1C(=O)c2ccc(C(=O)Nc3cccnc3)cc2C1=O,-1.08
8,O=C(O)CCS(=O)(=O)c1nc(-c2cccs2)cc(C(F)(F)F)n1,-1.62
9,CCN(CC)CCNC(=O)c1cn(CC)c2ccc(S(=O)(=O)N3CCc4ccccc4C3)cc2c1=O,0.107
10,COc1ccc(Cn2ccc(=O)c(Cc3c(Cl)cccc3Cl)c2C)cc1,-9.55
11,Cc1cc2c(c(=O)n1Cc1cccnc1)C(c1cccs1)C(C#N)=C(N)O2 (configuration not stated),7.76
12,COc1cc(-c2nc3ccccc3nc2-c2ccc(O)c(OC)c2)ccc1O,2.04
13,O=C(O)CN1C(=O)/C(=C\c2cc(Br)ccc2OCc2ccc([N+](=O)[O-])cc2)SC1=S,8.45
14,O=C(Nc1cccnc1)c1cc2nc(C3CC3)cc(C(F)(F)F)n2n1,-0.235
15,O=C(Nc1ccc(Cl)c(-c2nc3ccccc3[nH]2)c1)c1cccnc1,-6.18
16,O=C(Nc1ccc(NS(=O)(=O)c2ccccc2)cc1)c1cccnc1,-3.36
17,O=C(CSc1nc2ccccc2c(=O)n1-c1ccccc1)N1CCN(CCO)CC1,0.387

# Copied from above: compounds 11 to 12
row,Compound,activity [%]
11,Cc1cc2c(c(=O)n1Cc1cccnc1)C(c1cccs1)C(C#N)=C(N)O2 (configuration not stated),7.76
12,COc1cc(-c2nc3ccccc3nc2-c2ccc(O)c(OC)c2)ccc1O,2.04
